Results deposited as PubChem BioAssay AID602196 (INSERM, 2012)
Shown is an unselected part of about 23,000 deposited reagents. Over the whole deposit, 455 (2%) are marked active. 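Active includes both protection and sensitisation; some change values fall well beyond the stated -50 to +50 range.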 Unmarked entries are inactive. Further read-outs or replicates are left out here. No sequences are given here. Not given: the amount of reagent.

Screen: 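Modifiers of cisplatin sensitivity in A549 cells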
Cell system: human A549 lung cancer cells
Reagents: siRNA pair against human genes
Duration: 48 h transfection before cisplatin; time from cisplatin to read-out not stated
Treatment: cisplatin at a dose killing half of control-siRNA cells; exact dose and duration not given
Measured: 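Cisplatin cell death as a shift from the 50% death seen with control siRNA; siRNAs toxic or growth-blocking alone scored 0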
Scale: two-siRNA summed score (-2 to +2): higher = both siRNAs protect from cisplatin killing; -2 means both sensitise; mean protection from cisplatin (shift in death) and protection from cisplatin (shift in death), siRNA C: higher = protection from cisplatin killing
Hit rule: 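Each siRNA scores 0 if harmful alone by LDH or WST-1, otherwise +1 if it reduces and -1 if it increases cisplatin killing; a gene is active when both siRNAs agree (sum +2 or -2)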
Meaning of the calls: active = both siRNAs shift cisplatin killing the same way; inactive = no consistent shift, or siRNA harmful alone

| target | PubChem SID | two-siRNA summed score (-2 to +2) | mean protection from cisplatin (shift in death) (%) | protection from cisplatin (shift in death), siRNA C (%) |
| --- | --- | --- | --- | --- |
| NCK1 | SID131504685 | 0 | -4.8 | -17.7 |
| CCT6A | SID131504322 | 0 | -5.7 | -1.7 |
| PPIAP72 | SID131522344 | 1 | 17.8 | 21.7 |
| LOC441782 | SID131514149 | 0 | 7.4 | 3.2 |
| LOC401018 | SID131509105 | 0 | 1.8 | 7.5 |
| DNAJC3 | SID131512173 | 0 | 5.2 | 5.9 |
| PCDHB15 | SID131505412 | 0 | -3.2 | 1 |
| H2BC26 | SID131517136 | 0 | 12.5 | 12.4 |
| SMIM1 | SID131515335 | 0 | 9 | 12.4 |
| POC5-DT | SID131511465 | 0 | 4.4 | 3.9 |
| TXLNG | SID131514190 | 0 | 7.5 | 4.3 |
| TOR3A | SID131501448 | -1 | -9.6 | -16.1 |
| LOC389409 | SID131519814 | 1 | 7.6 | -2.1 |
| AMMECR1L | SID131503491 | 0 | -9.6 | -7.6 |
| SSX6P | SID131505972 | 0 | -2.2 | -11.7 |

Part of the list above in another layout.
NCK1 [SID131504685]
- two-siRNA summed score (-2 to +2): 0
- mean protection from cisplatin (shift in death) (%): -4.8
- protection from cisplatin (shift in death), siRNA C (%): -17.7

CCT6A [SID131504322]
- two-siRNA summed score (-2 to +2): 0
- mean protection from cisplatin (shift in death) (%): -5.7
- protection from cisplatin (shift in death), siRNA C (%): -1.7

PPIAP72 [SID131522344]
- two-siRNA summed score (-2 to +2): 1
- mean protection from cisplatin (shift in death) (%): 17.8
- protection from cisplatin (shift in death), siRNA C (%): 21.7

LOC441782 [SID131514149]
- two-siRNA summed score (-2 to +2): 0
- mean protection from cisplatin (shift in death) (%): 7.4
- protection from cisplatin (shift in death), siRNA C (%): 3.2

LOC401018 [SID131509105]
- two-siRNA summed score (-2 to +2): 0
- mean protection from cisplatin (shift in death) (%): 1.8
- protection from cisplatin (shift in death), siRNA C (%): 7.5

DNAJC3 [SID131512173]
- two-siRNA summed score (-2 to +2): 0
- mean protection from cisplatin (shift in death) (%): 5.2
- protection from cisplatin (shift in death), siRNA C (%): 5.9

Additional reagents:
| target | PubChem SID | two-siRNA summed score (-2 to +2) | mean protection from cisplatin (shift in death) (%) | protection from cisplatin (shift in death), siRNA C (%) |
| --- | --- | --- | --- | --- |
| SNRNP27 | SID131519354 | 1 | 5 | 7.3 |
| KCNU1 | SID131501530 | -1 | -9.1 | -2.1 |
| LOC441146 | SID131517001 | 0 | 12.1 | 4.5 |
| LELP1 | SID131510647 | 0 | 3.5 | -0.3 |
| VPS4A | SID131515054 | 0 | 8.6 | 9.5 |
| PAX8 | SID131508636 | 0 | 1.3 | -1.4 |
| YIPF5 | SID131507328 | 0 | -0.3 | -6.7 |
| KLHL3 | SID131515080 | 0 | 8.6 | -6.6 |
| PLGRKT | SID131507868 | 0 | 0.4 | 6.7 |
| CSAD | SID131503325 | 0 | -11 | 8.1 |
| ZBTB41 | SID131521320 | 1 | 13 | 23.8 |
| LOC440985 | SID131515015 | 0 | 8.6 | 10.3 |
| POLR1A | SID131520906 | 1 | 11.5 | -0.6 |
| ITGA1 | SID131509040 | 0 | 1.8 | 4.6 |
| MIR3667HG | SID131520173 | 1 | 8.9 | 9.7 |
| SLK | SID131522537 | 1 | 19.7 | 10.4 |
| LRRC14 | SID131504427 | 0 | -5.4 | -8.4 |
| RNF217 | SID131520624 | 1 | 10.5 | 20.6 |
| XTBD1 | SID131508850 | 0 | 1.5 | -4.7 |
| GALNT9 | SID131507709 | 0 | 0.2 | 5.8 |
| LOC440967 | SID131523004 | 2 (active) | 16.5 | 14 |
| LOC402516 | SID131517898 | 0 | 15.3 | 19.2 |
| CASP8AP2 | SID131503235 | 0 | -11.8 | -8 |
| LOC285711 | SID131510563 | 0 | 3.4 | -5.7 |
